US20210023232A1, “COMBINATION OF POLYETHYLENE GLYCOL AND RAPAMYCIN AND USE THEREOF” (JENKEM TECHNOLOGY CO., LTD. (TIANJIN), priority 2018, published 2021)
At least one structure is not confirmed: it was looked up by name or label, or the drawing left a doubt.

Test system: KLH antibody
Experiment: Influence on keyhole limpet hemoeyanin (KLH) antibody level in immunized mice, serum ELISA potency assay
Type: in vivo, mouse
Method: 2.4.1. Antigenic Information: Immunogen: KLH; Tested Substance: KLH
Primary immunization: On the first day, 100 ug antigen (immunogen) and Freund's complete adjuvant in the same volume were formed into a water-in-oil compound by means of mutual injection with a syringe, and then the compound was given to each of 18 mice by subcutaneous multi-point injection.
Second immunization: On the 14th day, 100 ug antigen (immunogen) and Freund's incomplete adjuvant in the same volume were formed into a water-in-oil compound by means of mutual injection with a syringe, and then the compound was given to each of 18 mice by subcutaneous multi-point injection.
Third immunization: On the 24th day, 100 ug antigen (immunogen) and Freund's incomplete adjuvant in the same volume were formed into a water-in-oil compound by means of mutual injection with a syringe, and then the compound was given to each of 18 mice by subcutaneous multi-point injection.
Test of tail blood: On the 28th-29th day, about 20 ul tail blood was collected from the tail vein, followed by 30 min RT and 5 min 5000 rpm centrifugation; then haemocyte precipitate was removed; and serum was taken for Elisa potency assay. […]

In the case of CO[C@H]1C[C@@H]2CC[C@@H](C)[C@@](O)(O2)C(=O)C(=O)N2CCCC[C@H]2C(=O)O[C@H]([C@H](C)C[C@@H]2CC[C@@H](O)[C@H](OC)C2)CC(=O)[C@H](C)/C=C(\C)[C@@H](O)[C@@H](OC)C(=O)[C@H](C)C[C@H](C)/C=C/C=C/C=C/1C [rapamycin], the “Statistical difference from immune model group after the fourth immunization” value (at 1:1K and 1:3K) is reported as “shows no remarkable difference” and the “Statistical difference from immune model group after the third immunization” value (at 1:3K) is reported as “shows no remarkable difference”.
